According to publication PMC11756305:
The exact form of at least one protein or probe is not confirmed.

System: BcWRKY33A-GST
Assay: EMSA
Details: Beyotime GS009 chemiluminescent EMSA kit, room temperature, 6% native gel, TGE buffer; salt and pH not stated; recombinant protein; protein details: GST (pGEX); label: biotin

Row | Sequence | binding result
1 | GAAAGAAATAAAGTCAAAAGTTACAGTAGA (double strand) [pBcLRP1 W-box probe] | binds
2 | GATATAATTCAAAATAGTCAAGGACCATGTCAATAT (double strand) [pBcCOW1 W-box probe] | binds
